Test results published in paper PMC4895718.
No constants are given. Whether binding was seen depends on the method and setting. Some binding calls cover weakened binding; strength is not graded here.

Sequences of proteins named here, by UniProt entry; tags and fusion partners are left off.
UniProt P08050: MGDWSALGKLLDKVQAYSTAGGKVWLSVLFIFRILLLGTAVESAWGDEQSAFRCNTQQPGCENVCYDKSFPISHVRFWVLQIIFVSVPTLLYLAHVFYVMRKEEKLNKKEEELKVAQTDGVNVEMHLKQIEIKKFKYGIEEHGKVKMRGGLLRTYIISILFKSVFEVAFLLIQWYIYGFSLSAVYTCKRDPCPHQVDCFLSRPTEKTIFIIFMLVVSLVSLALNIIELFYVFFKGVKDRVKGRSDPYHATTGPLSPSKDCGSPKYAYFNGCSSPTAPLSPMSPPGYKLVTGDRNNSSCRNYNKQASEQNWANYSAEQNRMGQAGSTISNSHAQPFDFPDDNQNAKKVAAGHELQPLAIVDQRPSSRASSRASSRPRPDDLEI

Target: Connexin 43 (Cx43), endogenous in neonatal rat ventricular myocytes (NRVMs) (rat (endogenous in NRVMs)) (UniProt P08050)
Experiment: SEC; 1% Triton X-100-solubilised NRVM homogenate on TSK-GEL G2000SWXL, 20 mM phosphate buffer pH 7.0, 1 ml/min; fractions by SDS-PAGE and immunoblot; control and Lrp6 knockdown cells

binding: binds
Substance: Connexin 43 (Cx43), endogenous in neonatal rat ventricular myocytes (NRVMs) (from UniProt P08050 1-382)
